Assay results reported in patent US20170056520A1.
No constants are given. Whether binding was seen depends on the method and setting. Some entries that bind do so weakly or less than the wild type. Blank lines part the entries; values can stand above or below the binder they belong to.

Target: recombinant human HLA-A1-IgG1.Fc fusion protein (human)
Assay: ELISA

binding: binds
B1: scFv of mAb specific for human HLA-A1 (from monoclonal antibody 4-35-7) (scFv)
scFv: DIQMTQSPSTLSASVGDRVTITCRASQSISNWLAWYQQKPGKAPNLLIYKASSLESGVPSRFSGSGSGTEFTLTISSLQPDDFATYYCQQYHDYSVTFGAGTKVEIKRGGGGSGGGGSGGGGSEVQLLESGGGLVQPGGSQRLSCVASGVPFSNYAMNWVRQAPGKGLEWVSSISGGGDRTFYADSVKGRFTISRDNSKNTLYLQMNSLGAGDTAVYYCAKTYYDFWSGYSRHLNSWGQGSLVTVSSGGGGSGGGGSC

binding: binds
B2: tetrazine-conjugated scFv specific for human HLA-A1 (scFv)
scFv: B1 scFv
modifications: C-terminal cysteine conjugated with Mal-PEG4-tetrazine
